PubChem BioAssay AID1224829 – NIAID | 2016
Screen: 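Genes needed for LPS-driven NF-kappaB p65 nuclear entry in mouse macrophages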 (follow-up of hits). Cell system: mouse RAW264.7 G9 macrophage reporter cells. Knock-down reagent: single siRNA against mouse genes, 100 nM. Time to read-out: 2 days of siRNA knock-down, then 40 min of LPS before fixing. Challenge: LPS (Salmonella minnesota R595) at 10 ng/ml. Measurement: 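High-content images after 40 min LPS exposure; GFP-p65 nucleus to surrounding ring signal ratio, normalised to plate median and non-targeting control wells, expressed as z-score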. Scale: p65 translocation z-score and gene median z-score, per vendor: higher = more nuclear NF-kappaB p65 after LPS. Call rule: 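An siRNA is called active when the mean z-score of its two replicates is above 2 or below -2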. Meaning of the calls: active = changed p65 translocation (either direction); inactive = no clear change.
Here is an unselected part of about 3,800 reagents tested. 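Calls cover raised and lowered translocation; gene median uses one vendor's three siRNAs; qiagen siRNAs acted more weakly than ambion siRNAs.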

The first 4 records, ahead of the listing:
| Target gene | PubChem SID | siRNA vendor or control pool | p65 translocation z-score, replicate mean | p65 translocation z-score, replicate 1 | p65 translocation z-score, replicate 2 | gene median z-score, per vendor | call |
| --- | --- | --- | --- | --- | --- | --- | --- |
| Dync1i2 (dynein cytoplasmic 1 intermediate chain 2) | SID315484047 | ambion single siRNA | 0.339 | 0.189 | 0.489 | 0.189 | inactive |
| Dync1i2 (dynein cytoplasmic 1 intermediate chain 2) | SID315484048 | ambion single siRNA | -0.599 | 0.222 | -1.42 | 0.189 | inactive |
| Dync1i2 (dynein cytoplasmic 1 intermediate chain 2) | SID315484049 | ambion single siRNA | -3.68 | -3.68 | – | 0.189 | active |
| Dync1i2 (dynein cytoplasmic 1 intermediate chain 2) | SID315484050 | qiagen single siRNA | -1.63 | -1.83 | -1.44 | -1.66 | inactive |

Main list, from the start:
| Target gene | PubChem SID | siRNA vendor or control pool | p65 translocation z-score, replicate mean | p65 translocation z-score, replicate 1 | p65 translocation z-score, replicate 2 | gene median z-score, per vendor | call |
| --- | --- | --- | --- | --- | --- | --- | --- |
| Dync1i2 (dynein cytoplasmic 1 intermediate chain 2) | SID315484047 | ambion single siRNA | 0.339 | 0.189 | 0.489 | 0.189 | inactive |
| Dync1i2 (dynein cytoplasmic 1 intermediate chain 2) | SID315484048 | ambion single siRNA | -0.599 | 0.222 | -1.42 | 0.189 | inactive |
| Dync1i2 (dynein cytoplasmic 1 intermediate chain 2) | SID315484049 | ambion single siRNA | -3.68 | -3.68 | – | 0.189 | active |
| Dync1i2 (dynein cytoplasmic 1 intermediate chain 2) | SID315484050 | qiagen single siRNA | -1.63 | -1.83 | -1.44 | -1.66 | inactive |
| Dync1i2 (dynein cytoplasmic 1 intermediate chain 2) | SID315484051 | qiagen single siRNA | -4.13 | -6.59 | -1.66 | -1.66 | active |
| Dync1i2 (dynein cytoplasmic 1 intermediate chain 2) | SID315484052 | qiagen single siRNA | -0.27 | -0.27 | – | -1.66 | inactive |
| Serpina1b | SID315484902 | ambion single siRNA | -0.757 | 0.495 | -2.01 | -1.77 | inactive |
| Serpina1b | SID315484903 | ambion single siRNA | -0.767 | 0.0376 | -1.57 | -1.77 | inactive |
| Serpina1b | SID315484904 | ambion single siRNA | -2.44 | -2.91 | -1.96 | -1.77 | active |
| Serpina1b | SID315484905 | qiagen single siRNA | 0.122 | 0.122 | – | 1.5 | inactive |
| Serpina1b | SID315484906 | qiagen single siRNA | 2.98 | 0.805 | 5.15 | 1.5 | active |
| Serpina1b | SID315484907 | qiagen single siRNA | 2.2 | 2.2 | – | 1.5 | active |
| Ldhd (lactate dehydrogenase D) | SID315485631 | ambion single siRNA | 0.208 | 0.428 | -0.0118 | -2.2 | inactive |
| Ldhd (lactate dehydrogenase D) | SID315485632 | ambion single siRNA | -5.15 | -5.27 | -5.03 | -2.2 | active |
| Ldhd (lactate dehydrogenase D) | SID315485633 | ambion single siRNA | -2.2 | -2.74 | -1.66 | -2.2 | active |
| Ldhd (lactate dehydrogenase D) | SID315485634 | qiagen single siRNA | 3.86 | 3.65 | 4.06 | 2.98 | active |
| Ldhd (lactate dehydrogenase D) | SID315485635 | qiagen single siRNA | 3 | 2.3 | 3.69 | 2.98 | active |
| Ldhd (lactate dehydrogenase D) | SID315485636 | qiagen single siRNA | -0.485 | -0.932 | -0.0393 | 2.98 | inactive |
| Polr1a (polymerase (RNA) I polypeptide A) | SID315484824 | ambion single siRNA | -2.12 | -2.75 | -1.48 | -2.18 | active |
| Polr1a (polymerase (RNA) I polypeptide A) | SID315484825 | ambion single siRNA | -3.21 | -1.76 | -4.65 | -2.18 | active |
| Polr1a (polymerase (RNA) I polypeptide A) | SID315484826 | ambion single siRNA | -1.45 | -0.322 | -2.59 | -2.18 | inactive |
| Polr1a (polymerase (RNA) I polypeptide A) | SID315484827 | qiagen single siRNA | 3.03 | 2.98 | 3.08 | 1.19 | active |
| Polr1a (polymerase (RNA) I polypeptide A) | SID315484828 | qiagen single siRNA | 0.0945 | -1 | 1.19 | 1.19 | inactive |
| Polr1a (polymerase (RNA) I polypeptide A) | SID315484829 | qiagen single siRNA | -1.8 | -1.8 | – | 1.19 | inactive |
| Pop7 | SID315486771 | ambion single siRNA | -3.04 | -4.28 | -1.8 | -2.9 | active |
| Pop7 | SID315486772 | ambion single siRNA | -1.88 | -1.6 | -2.17 | -2.9 | inactive |
| Pop7 | SID315486773 | ambion single siRNA | -4.45 | -5.26 | -3.63 | -2.9 | active |
| Pop7 | SID315486774 | qiagen single siRNA | 3.54 | 1.98 | 5.1 | 0.0371 | active |
| Pop7 | SID315486775 | qiagen single siRNA | -0.998 | -1.45 | -0.549 | 0.0371 | inactive |
| Pop7 | SID315486776 | qiagen single siRNA | 0.032 | 0.623 | -0.559 | 0.0371 | inactive |
| Pate6 (prostate and testis expressed 6) | SID315486546 | ambion single siRNA | 0.447 | 0.144 | 0.749 | -1.64 | inactive |
| Pate6 (prostate and testis expressed 6) | SID315486547 | ambion single siRNA | -1.64 | -1.65 | -1.64 | -1.64 | inactive |
| Pate6 (prostate and testis expressed 6) | SID315486548 | ambion single siRNA | -4.55 | -4.87 | -4.23 | -1.64 | active |
| Pate6 (prostate and testis expressed 6) | SID315486549 | qiagen single siRNA | 1.27 | 1.78 | 0.756 | 1.25 | inactive |
| Pate6 (prostate and testis expressed 6) | SID315486550 | qiagen single siRNA | 1.75 | 1.76 | 1.75 | 1.25 | inactive |
| Pate6 (prostate and testis expressed 6) | SID315486551 | qiagen single siRNA | -1.12 | -2.04 | -0.202 | 1.25 | inactive |
